Data as given in PubChem BioAssay AID1259254 (NCATS, 2017).
This is one part, drawn at random, of about 59,000 reagents. About 1,550 of them (2.6%) were called active. 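G2 share is only a proxy for re-replication; each gene was hit by three separate siRNAs, and active genes were retested.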 The numbers tell different reagents against one gene apart. Further read-outs or replicates are left out here. The record does not give: the amount of reagent.

Aim: 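Gene knock-downs that lead to re-replication, shown by excess G2 DNA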 (primary screen)
Cells: human HCT116 colorectal cancer cells
Reagent: single siRNA against human genes
Duration: 3 days
Measured: 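Nuclei stained with Hoechst and imaged; cell-cycle phase assigned by DNA content; G2 share scaled per plate, non-targeting siRNA 0%, GMNN siRNA 100%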
Scale: G2 robust z-score and G2 cells, % of GMNN control: higher = more G2 cells, more excess DNA replication
Active means: 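An siRNA counts as active if its G2 robust z-score lies at least 5 MADs above the screen median; here such calls match roughly 38% of GMNN control or more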

What did the screen give for MATCAP1 #1?
G2 robust z-score: -0.254; G2 cells, % of GMNN control: 1.18; Call: inactive

How did the screen score MATCAP1 #2?
G2 robust z-score: -0.607; G2 cells, % of GMNN control: -1.3; Call: inactive

What is on record for MATCAP1 #3?
G2 robust z-score: -1.09; G2 cells, % of GMNN control: -4.73; Call: inactive

With CCER1 #1, how do the results read?
G2 robust z-score: -0.0782; G2 cells, % of GMNN control: 2.42; Call: inactive

What did the screen give for CCER1 #2?
G2 robust z-score: 0.541; G2 cells, % of GMNN control: 6.77; Call: inactive

For CCER1 #3, what does the deposit list?
G2 robust z-score: -0.33; G2 cells, % of GMNN control: 0.649; Call: inactive

With ZNF611 #1, how do the results read?
G2 robust z-score: -0.0175; G2 cells, % of GMNN control: 2.84; Call: inactive

Which result is listed for ZNF611 #2?
G2 robust z-score: 0.00724; G2 cells, % of GMNN control: 3.02; Call: inactive

For ZNF611 #3, what was measured?
G2 robust z-score: 2.32; G2 cells, % of GMNN control: 19.3; Call: inactive

For PTPN21 #1, what was measured?
G2 robust z-score: 0.677; G2 cells, % of GMNN control: 7.73; Call: inactive

How did the screen score PTPN21 #2?
G2 robust z-score: -0.446; G2 cells, % of GMNN control: -0.171; Call: inactive

For PTPN21 #3, what was measured?
G2 robust z-score: -0.553; G2 cells, % of GMNN control: -0.92; Call: inactive

What is on record for ARRB1 #1?
G2 robust z-score: 0.0576; G2 cells, % of GMNN control: 3.37; Call: inactive

With ARRB1 #2, what was measured?
G2 robust z-score: 3.24; G2 cells, % of GMNN control: 25.8; Call: inactive

For ARRB1 #3, what does the deposit list?
G2 robust z-score: 1.02; G2 cells, % of GMNN control: 10.2; Call: inactive

What is on record for CDH9 #1?
G2 robust z-score: -0.661; G2 cells, % of GMNN control: -1.68; Call: inactive

How did the screen score CDH9 #2?
G2 robust z-score: -0.255; G2 cells, % of GMNN control: 1.17; Call: inactive

What did the screen give for CDH9 #3?
G2 robust z-score: 2.22; G2 cells, % of GMNN control: 18.6; Call: inactive

With POLDIP2 #1, what does the deposit list?
G2 robust z-score: -0.617; G2 cells, % of GMNN control: -1.38; Call: inactive

For POLDIP2 #2, what does the deposit list?
G2 robust z-score: 0.323; G2 cells, % of GMNN control: 5.24; Call: inactive

What is on record for POLDIP2 #3?
G2 robust z-score: 0.131; G2 cells, % of GMNN control: 3.89; Call: inactive

What did the screen give for LOC440981 (retired record) #1?
G2 robust z-score: 0.313; G2 cells, % of GMNN control: 5.17; Call: inactive

Which result is listed for LOC440981 (retired record) #2?
G2 robust z-score: 1.6; G2 cells, % of GMNN control: 14.2; Call: inactive

With LOC440981 (retired record) #3, what does the deposit list?
G2 robust z-score: 5.08; G2 cells, % of GMNN control: 38.7; Call: active

What did the screen give for HSPA5 #1?
G2 robust z-score: -0.439; G2 cells, % of GMNN control: -0.123; Call: inactive

How did the screen score HSPA5 #2?
G2 robust z-score: 1.23; G2 cells, % of GMNN control: 11.6; Call: inactive

With HSPA5 #3, how do the results read?
G2 robust z-score: 1.86; G2 cells, % of GMNN control: 16.1; Call: inactive

With POLA2 #1, how do the results read?
G2 robust z-score: -1.17; G2 cells, % of GMNN control: -5.23; Call: inactive

How did the screen score POLA2 #2?
G2 robust z-score: -1.07; G2 cells, % of GMNN control: -4.57; Call: inactive

Which result is listed for POLA2 #3?
G2 robust z-score: -0.248; G2 cells, % of GMNN control: 1.23; Call: inactive

Entries listed above marked active (1):
LOC440981 (retired record) #3 | G2 robust z-score: 5.08; G2 cells, % of GMNN control: 38.7; Call: active
